Earlier results, collected in patent US5997843A, “Radiometal complexes that localise in hypoxic tissue” (priority 1993, dated 1999).
At least one structure is not confirmed: it was looked up by name or label, or the drawing left a doubt.

Conditions: cited from earlier work

CC(=NO)C(C)(C)NCCCCNC(C)(C)C(C)=NO [Compound I, 4,9-diaza-3,3,10,10-tetramethyldodecan-2,11',-dione dioxime]
charge of technetium complex: neutral
lipophilicity of technetium complex: less lipophilic than Tc-PnAO
stability of technetium complex: stable
